Values quoted from earlier work in patent publication US7265155B2, “Treating a variety of pathological conditions, including spasticity and convulsions, by effecting a modulation of CNS activity with isovaleramide, isovaleric acid, or a related compound” (NBS Pharmaceuticals, Inc., priority 1996, dated 2007).

System: GABA levels in the brains of mice
Settings: reported in the literature; cited from earlier work

SMILES: CC(C)CC(=O)O [Isovaleric acid, isovaleric acid]
- GABA levels in the brains of mice: slight increase in GABA levels
